Results reported in patent EP1944293A1, “Alpha-Polymorph of a substituted pyrazoline, its preparation and use as medicaments” (Laboratorios del Dr. Esteve S.A., priority 2007, dated 2008).
At least one compound was matched to its structure with a doubt left.

What was measured:
[1] = Feeding study in dietary-induced obese rats: food intake and body weight; type: in vivo, female Wistar rats
Experimental: The experiment was performed on female Wistar rats (originally in the weight range 250-300 g). The rats were housed in pairs in polypropylene cages with solid floors and sawdust bedding at a temperature of 21±4°C and 55±20% humidity. Animals were maintained on a reverse phase light-dark cycle (lights off for 8 h from 09.30-17.30 h) during which time the room was illuminated by red light. Animals had free access to powdered high fat diet (VRF1 plus 20% lard), ground chocolate, ground peanuts and tap water at all times. The three different diets were contained in separate glass feeding jars with aluminum lids with a 3-4 cm hole cut in it to allow access to the food. Animals were housed in pairs for twelve weeks for the induction of obesity. Animals were then housed singly in polypropylene cages with wire grid floors to enable the food intake of each rat to be recorded. Polypropylene trays with cage pads were placed beneath each cage to detect any food spillage. Animals were accustomed to these new conditions (individual housing and the wire-grid floor cages) for at least 14 days before the start of the baseline readings. […] Food intake and body weight were measured once daily. […] Thus, means were adjusted for differences in body weight between the groups on Day 1 and standard errors of the mean (SEM) were calculated from the residuals of the statistical model. […]

[2] = Effect of continued administration on body weight in rats; type: in vivo; settings: 10 mg/kg i.p. once daily

## O=C(NN1CCCCC1)C1=NN(c2ccc(Cl)cc2Cl)[C@@H](c2ccc(Cl)cc2)C1 [Compound A, (R)-N-piperidinyl-5-(4-chlorophenyl)-1-(2,4-dichlorophenyl)-4,5-dihydro-1H-pyrazole-3-carboxamide]
[1]; 10 mg/kg po once daily, Days 2 to 7, Figure 2
  daily food intake vs control group: significantly lower
[1]; 30 mg/kg po once daily, Days 2 to 10 and Day 15, Figure 2
  daily food intake vs control group: significantly lower
[2]; days 8-21, Figure 1
  effect on body weight compared with the racemate: stronger action than the racemate
[2]; escape period days 23-36, Figure 1
  recovery of weight after treatment compared with the racemate: slower recovery of weight
